This passage reports binding results from US20190010237A1.

Protein sequences, listed by entry. Tags and fused reporters are not part of them. Residues count along the entry.
UniProt P16471, residues 25-234: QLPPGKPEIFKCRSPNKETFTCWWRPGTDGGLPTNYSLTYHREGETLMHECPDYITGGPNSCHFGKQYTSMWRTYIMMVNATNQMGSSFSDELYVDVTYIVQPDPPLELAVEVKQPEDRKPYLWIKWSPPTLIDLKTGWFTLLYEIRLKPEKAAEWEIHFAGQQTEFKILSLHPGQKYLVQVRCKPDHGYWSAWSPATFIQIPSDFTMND

These are yes or no findings as the source states them, for the method shown. Some results given as binding are weak or reduced against the parent protein; the word gives no strength.

The target of this test is PRLR (prolactin receptor, as named in the kinetics and crystallography paragraph) (UniProt P16471). Nature of the test: X-ray crystallography of the complex.

B1: h16f Fab fragment (Fab, V domains shown)
VH: EVQLVQSGAEVKKPGSSVKVSCKASGYTFTTYWMHWVRQAPGQGLEWIGEIDPSDSYSNYNQKFKDRATLTVDKSTSTAYMELSSLRSEDTAVYYCARNGGLGPAWFSYWGQGTLVTVSS
VL: DIQMTQSPSSVSASVGDRVTITCKASQYVGTAVAWYQQKPGKSPKLLIYSASNRYTGVPSRFSDSGSGTDFTLTISSLQPEDFATYFCQQYSSYPWTFGGGTKVEIK
For the molecule B1, the binding entry is recorded as “binds”.
